Experimental data published in the supplement of paper PMC11006884.
Only a part is listed here, and it is no random draw. This is a noisy data set.

Amino acid sequences for entries named in this document (tags omitted). A change or cut given only in a name is not applied to a line headed by its entry.
UniProt Q9Y5Y2: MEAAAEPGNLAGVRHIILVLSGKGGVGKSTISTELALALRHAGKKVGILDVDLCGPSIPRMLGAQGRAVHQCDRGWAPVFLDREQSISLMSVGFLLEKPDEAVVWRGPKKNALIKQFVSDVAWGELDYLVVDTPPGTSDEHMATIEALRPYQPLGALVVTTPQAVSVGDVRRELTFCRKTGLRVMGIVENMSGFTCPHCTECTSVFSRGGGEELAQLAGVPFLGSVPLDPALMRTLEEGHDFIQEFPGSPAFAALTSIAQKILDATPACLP
UniProt Q9Y496, whole entry: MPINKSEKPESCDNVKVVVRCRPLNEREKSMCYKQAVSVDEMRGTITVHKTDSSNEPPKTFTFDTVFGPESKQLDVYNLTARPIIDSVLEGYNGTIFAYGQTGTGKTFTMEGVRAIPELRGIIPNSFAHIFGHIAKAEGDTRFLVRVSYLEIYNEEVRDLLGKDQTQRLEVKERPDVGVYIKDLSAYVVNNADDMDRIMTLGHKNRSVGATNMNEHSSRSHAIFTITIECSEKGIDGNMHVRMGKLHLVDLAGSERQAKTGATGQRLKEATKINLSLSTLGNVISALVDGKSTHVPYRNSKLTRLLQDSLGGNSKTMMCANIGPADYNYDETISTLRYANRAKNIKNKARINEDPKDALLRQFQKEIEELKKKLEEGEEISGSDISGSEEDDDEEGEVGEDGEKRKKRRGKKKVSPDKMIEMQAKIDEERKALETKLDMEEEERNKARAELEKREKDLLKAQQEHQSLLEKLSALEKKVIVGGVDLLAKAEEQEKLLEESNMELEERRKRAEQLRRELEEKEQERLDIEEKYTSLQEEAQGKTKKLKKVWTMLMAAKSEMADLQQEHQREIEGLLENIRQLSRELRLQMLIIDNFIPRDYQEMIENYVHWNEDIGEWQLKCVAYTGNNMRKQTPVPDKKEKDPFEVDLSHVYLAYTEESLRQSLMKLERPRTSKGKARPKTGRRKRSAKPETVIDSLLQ
UniProt Q9Y6X4: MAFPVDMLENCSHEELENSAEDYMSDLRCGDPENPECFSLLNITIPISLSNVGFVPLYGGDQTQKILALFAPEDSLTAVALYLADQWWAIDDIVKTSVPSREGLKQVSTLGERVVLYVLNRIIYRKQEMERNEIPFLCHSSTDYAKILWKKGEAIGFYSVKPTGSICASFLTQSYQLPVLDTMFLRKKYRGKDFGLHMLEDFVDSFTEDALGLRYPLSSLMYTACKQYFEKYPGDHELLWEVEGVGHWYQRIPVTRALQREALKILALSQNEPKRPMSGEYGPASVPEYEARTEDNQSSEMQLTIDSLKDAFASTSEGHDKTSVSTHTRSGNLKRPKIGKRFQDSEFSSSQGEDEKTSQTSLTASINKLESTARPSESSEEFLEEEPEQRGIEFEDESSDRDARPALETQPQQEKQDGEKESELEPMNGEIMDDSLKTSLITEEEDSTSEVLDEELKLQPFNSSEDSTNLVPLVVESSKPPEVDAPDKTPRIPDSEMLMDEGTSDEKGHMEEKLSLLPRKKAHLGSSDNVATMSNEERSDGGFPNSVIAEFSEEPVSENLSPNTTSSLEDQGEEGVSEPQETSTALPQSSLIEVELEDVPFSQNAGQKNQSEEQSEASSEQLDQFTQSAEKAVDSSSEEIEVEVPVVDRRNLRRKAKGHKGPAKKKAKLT
UniProt Q9Y613: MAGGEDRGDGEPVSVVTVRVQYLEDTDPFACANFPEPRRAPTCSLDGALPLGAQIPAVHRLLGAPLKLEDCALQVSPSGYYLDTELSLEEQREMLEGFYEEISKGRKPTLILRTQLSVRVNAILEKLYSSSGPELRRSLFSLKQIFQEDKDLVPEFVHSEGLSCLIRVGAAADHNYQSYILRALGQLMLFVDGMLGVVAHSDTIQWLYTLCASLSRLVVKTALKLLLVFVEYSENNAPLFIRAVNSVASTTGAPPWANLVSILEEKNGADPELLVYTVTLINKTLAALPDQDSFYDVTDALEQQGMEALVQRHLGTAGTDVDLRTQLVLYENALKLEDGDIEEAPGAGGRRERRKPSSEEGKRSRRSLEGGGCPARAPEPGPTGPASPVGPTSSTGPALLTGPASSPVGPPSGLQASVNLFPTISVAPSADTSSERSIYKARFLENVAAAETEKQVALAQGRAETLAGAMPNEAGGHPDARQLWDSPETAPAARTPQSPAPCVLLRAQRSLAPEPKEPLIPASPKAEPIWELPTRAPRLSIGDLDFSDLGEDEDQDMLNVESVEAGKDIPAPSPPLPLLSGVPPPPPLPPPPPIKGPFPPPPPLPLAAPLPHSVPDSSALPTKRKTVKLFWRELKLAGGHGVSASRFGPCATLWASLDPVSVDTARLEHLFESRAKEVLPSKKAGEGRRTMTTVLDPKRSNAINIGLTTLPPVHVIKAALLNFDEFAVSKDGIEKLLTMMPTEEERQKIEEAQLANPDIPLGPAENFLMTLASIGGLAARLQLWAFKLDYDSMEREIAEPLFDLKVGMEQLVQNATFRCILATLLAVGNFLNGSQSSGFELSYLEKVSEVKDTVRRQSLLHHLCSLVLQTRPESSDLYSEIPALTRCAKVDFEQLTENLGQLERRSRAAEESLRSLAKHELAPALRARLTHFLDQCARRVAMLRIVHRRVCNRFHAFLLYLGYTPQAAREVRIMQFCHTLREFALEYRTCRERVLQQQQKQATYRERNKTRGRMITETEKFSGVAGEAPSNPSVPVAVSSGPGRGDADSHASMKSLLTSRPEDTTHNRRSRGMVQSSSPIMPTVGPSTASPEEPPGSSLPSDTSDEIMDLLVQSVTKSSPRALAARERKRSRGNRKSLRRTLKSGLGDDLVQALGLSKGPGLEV
UniProt Q9Y4B6: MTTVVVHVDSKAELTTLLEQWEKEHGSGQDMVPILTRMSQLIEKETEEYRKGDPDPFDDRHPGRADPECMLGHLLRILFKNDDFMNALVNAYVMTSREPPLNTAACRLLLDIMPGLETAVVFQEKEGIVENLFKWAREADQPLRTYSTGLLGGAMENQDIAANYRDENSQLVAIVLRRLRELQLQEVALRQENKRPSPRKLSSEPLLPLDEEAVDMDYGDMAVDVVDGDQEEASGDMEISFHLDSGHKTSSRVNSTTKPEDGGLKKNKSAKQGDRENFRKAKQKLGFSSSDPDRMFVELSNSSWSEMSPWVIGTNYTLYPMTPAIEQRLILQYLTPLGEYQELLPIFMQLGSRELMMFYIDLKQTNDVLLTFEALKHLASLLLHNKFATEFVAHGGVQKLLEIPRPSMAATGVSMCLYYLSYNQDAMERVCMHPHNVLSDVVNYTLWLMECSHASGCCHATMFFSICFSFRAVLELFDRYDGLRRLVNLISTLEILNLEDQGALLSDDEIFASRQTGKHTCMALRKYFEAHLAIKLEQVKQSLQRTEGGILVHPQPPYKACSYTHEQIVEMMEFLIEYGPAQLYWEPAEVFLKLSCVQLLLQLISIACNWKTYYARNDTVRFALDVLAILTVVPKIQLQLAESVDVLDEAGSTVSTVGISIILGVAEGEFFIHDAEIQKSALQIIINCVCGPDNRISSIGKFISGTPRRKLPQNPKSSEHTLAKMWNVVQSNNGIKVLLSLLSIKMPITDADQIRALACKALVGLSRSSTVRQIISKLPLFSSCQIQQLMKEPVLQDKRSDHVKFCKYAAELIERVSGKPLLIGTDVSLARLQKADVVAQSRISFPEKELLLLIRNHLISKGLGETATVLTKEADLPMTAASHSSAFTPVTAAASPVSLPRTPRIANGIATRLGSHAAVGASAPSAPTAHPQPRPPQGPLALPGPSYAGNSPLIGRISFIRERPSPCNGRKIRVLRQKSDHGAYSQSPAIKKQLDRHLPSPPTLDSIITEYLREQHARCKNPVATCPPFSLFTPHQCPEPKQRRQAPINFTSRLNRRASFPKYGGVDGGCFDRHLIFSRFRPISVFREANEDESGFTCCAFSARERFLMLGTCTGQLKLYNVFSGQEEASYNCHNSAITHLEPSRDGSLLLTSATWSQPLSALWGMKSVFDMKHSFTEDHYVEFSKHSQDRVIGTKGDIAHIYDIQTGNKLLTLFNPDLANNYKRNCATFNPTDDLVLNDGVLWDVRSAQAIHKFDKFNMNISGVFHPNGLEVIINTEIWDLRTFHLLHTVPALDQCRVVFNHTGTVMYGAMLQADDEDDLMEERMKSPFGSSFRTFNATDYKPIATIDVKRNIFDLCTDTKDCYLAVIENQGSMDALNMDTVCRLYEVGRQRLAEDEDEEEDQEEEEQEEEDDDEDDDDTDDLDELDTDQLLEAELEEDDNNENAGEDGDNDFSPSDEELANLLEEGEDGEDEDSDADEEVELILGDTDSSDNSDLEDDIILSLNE
UniProt Q9Y4E8: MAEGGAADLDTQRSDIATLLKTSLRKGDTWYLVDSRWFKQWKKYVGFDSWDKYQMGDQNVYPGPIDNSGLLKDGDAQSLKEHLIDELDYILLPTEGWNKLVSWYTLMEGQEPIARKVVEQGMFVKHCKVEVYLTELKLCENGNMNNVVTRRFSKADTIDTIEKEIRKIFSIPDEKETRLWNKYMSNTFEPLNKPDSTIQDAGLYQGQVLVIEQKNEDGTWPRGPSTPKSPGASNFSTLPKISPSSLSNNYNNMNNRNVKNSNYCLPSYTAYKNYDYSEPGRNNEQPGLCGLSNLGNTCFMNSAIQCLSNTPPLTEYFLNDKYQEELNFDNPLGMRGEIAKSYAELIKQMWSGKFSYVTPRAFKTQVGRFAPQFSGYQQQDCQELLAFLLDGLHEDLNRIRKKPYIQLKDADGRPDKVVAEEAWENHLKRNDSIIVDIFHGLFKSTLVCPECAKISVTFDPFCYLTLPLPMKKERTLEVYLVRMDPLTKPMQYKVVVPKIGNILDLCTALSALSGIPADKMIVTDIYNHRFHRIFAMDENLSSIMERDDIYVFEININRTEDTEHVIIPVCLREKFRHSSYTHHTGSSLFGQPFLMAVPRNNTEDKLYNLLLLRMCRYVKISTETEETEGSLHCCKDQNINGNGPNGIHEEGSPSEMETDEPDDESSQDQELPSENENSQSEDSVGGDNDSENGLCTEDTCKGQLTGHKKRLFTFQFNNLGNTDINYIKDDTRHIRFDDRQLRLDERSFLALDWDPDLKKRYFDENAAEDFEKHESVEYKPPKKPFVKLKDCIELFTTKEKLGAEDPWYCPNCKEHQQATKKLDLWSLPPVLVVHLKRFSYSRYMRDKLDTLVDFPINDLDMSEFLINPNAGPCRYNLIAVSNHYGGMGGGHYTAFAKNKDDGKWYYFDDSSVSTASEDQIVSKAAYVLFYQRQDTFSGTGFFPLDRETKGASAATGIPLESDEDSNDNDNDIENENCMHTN
UniProt Q9Y696: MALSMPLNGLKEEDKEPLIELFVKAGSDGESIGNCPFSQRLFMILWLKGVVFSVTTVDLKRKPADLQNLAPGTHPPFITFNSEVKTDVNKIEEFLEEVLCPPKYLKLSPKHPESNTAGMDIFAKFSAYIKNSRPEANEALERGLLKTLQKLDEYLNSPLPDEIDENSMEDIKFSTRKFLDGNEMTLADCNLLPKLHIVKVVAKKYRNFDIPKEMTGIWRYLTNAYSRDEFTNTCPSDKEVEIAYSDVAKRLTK
UniProt Q9Y6E0: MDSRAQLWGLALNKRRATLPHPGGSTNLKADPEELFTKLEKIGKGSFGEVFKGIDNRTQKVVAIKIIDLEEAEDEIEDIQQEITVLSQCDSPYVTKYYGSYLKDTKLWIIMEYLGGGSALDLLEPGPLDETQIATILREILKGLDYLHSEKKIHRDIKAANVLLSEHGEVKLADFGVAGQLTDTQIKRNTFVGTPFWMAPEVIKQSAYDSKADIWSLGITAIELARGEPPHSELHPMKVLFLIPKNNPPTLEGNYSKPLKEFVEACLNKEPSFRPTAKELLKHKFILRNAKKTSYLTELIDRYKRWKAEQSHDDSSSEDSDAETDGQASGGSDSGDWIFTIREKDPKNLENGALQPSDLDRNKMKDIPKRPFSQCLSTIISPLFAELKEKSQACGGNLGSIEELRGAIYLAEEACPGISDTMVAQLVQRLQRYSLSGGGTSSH

compound: COC(=O)/C=C/c1ccccc1 [methyl cinnamate]; experiment: log2 ratio of iodoacetamide-alkyne labeling of the cysteine site, DMSO over compound (competition); higher = stronger covalent engagement of the cysteine by the compound, active = 1 or more; conditions: 500 µM; treatment time 1 h; system: HEK293T cell lysate
Summary of the method: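 HEK293T lysate at 2 mg/mL was treated with vehicle or electrophile (500 µM) for 1 h at ambient temperature, then labelled with iodoacetamide alkyne (1 h), clicked to sCIP-TMT reagents, pooled, digested with trypsin overnight at 37 °C, enriched on streptavidin and eluted with acid. Peptides were analysed by Orbitrap Eclipse LC-MS/MS with FAIMS and quantified in FragPipe, using duplicate channels and three replicates, with cysteines quantified in only one replicate excluded. The log2 competition ratio for each cysteine is the mean control-channel reporter intensity divided by the mean compound-channel reporter intensity.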

log2 ratio of iodoacetamide-alkyne labeling, inactive:
NUBP2 C54 (UniProt Q9Y5Y2) 0.217
KIF3A C621 (UniProt Q9Y496) 0.107
FAM169A C11 (UniProt Q9Y6X4) 0.281
FHOD1 C650 (UniProt Q9Y613) 0.232
UniProt Q9Y4B6_C784 0.16
USP15 C264 (UniProt Q9Y4E8) 0.415
CLIC4 C35 (UniProt Q9Y696) 0.251
UniProt Q9Y6E0_C394 0.323
TACC3 C206 (UniProt Q9Y6A5) -0.119
